# Data reported in patent publication US20220306688A1.
# Results are given in words; binding and its absence hold for the method and conditions named. Some results given as binding are weak or reduced against the parent protein; the word gives no strength.
# Assays:
# KRAS-G12V (Homo sapiens) [1] = target: KRAS-G12V (Homo sapiens) (UniProt P01116); assay: truncation mapping; assay not given
# KRAS-G12V (Homo sapiens) [2] = target: KRAS-G12V (Homo sapiens) (UniProt P01116); assay: truncation studies, TR-FRET and GST pull-down competition
# KRAS-G12V (Homo sapiens) [3] = target: KRAS-G12V (Homo sapiens) (UniProt P01116); assay: GST-affinity pull-down (FIG. 2A, right panel)
Binder,binding (KRAS-G12V (Homo sapiens) [1]),binding (KRAS-G12V (Homo sapiens) [2]),binding (KRAS-G12V (Homo sapiens) [3])
MDYKDDEGTSEEKKIKVILKVLDPS [T4 603-627],binds,–,–
MDYKDDEGTSEEKKIK [T4a 603-618],binds,–,–
MDYKDDEG [RasKi: 8-mer 603-610],binds,binds,binds
